Reference: PubChem BioAssay AID504847 (National Center for Advancing Translational Sciences (NCATS), 2011)
Values joined by “and” are separate entries in the source; they are usually repeats but may differ in a detail not shown here. Equal entries are not always repeated. Out of some 400,000 compounds screened, about 3,700 (0.93%) were called active. This list was built around the results that the source calls inconclusive (neither active nor inactive); the mix of calls is not that of the screen. Calls come from the whole dose curve; as a rule, active = well fitted inhibition curve with a large enough effect; inconclusive = small, poorly fitted or top-dose-only effect, or another doubt; inactive = no such curve, though single readings can be large or run the other way. Potencies beside an inconclusive call are fits to weak or partial responses and may not hold up.

Sequences of proteins named here, by UniProt entry; tags and fusion partners are left off. A change or cut given only in a name is not applied to a line headed by its entry.
UniProt P11473: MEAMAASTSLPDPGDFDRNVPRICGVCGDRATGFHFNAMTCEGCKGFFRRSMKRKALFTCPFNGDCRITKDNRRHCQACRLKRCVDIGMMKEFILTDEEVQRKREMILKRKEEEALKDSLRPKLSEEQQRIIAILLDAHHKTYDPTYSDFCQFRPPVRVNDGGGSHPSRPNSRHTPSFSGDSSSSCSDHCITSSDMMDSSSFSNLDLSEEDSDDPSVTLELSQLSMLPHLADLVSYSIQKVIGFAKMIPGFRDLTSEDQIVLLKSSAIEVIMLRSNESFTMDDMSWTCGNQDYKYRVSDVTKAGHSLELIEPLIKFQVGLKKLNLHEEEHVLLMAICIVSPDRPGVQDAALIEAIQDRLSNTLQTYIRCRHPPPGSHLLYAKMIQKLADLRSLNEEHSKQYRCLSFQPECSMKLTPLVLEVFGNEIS

Biological target: Vitamin D3 receptor (Homo sapiens) (UniProt P11473)
Assay: Inhibitors of the vitamin D receptor (VDR): qHTS
Conditions: VDR-SRC2-3 peptide fluorescence polarization, 2 h; max response, negative = inhibition: active compounds read low
How it was run: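 Compounds are added to VDR with labelled SRC2-3 coactivator peptide and held 2 h at room temperature. Inhibition of the VDR–peptide interaction is then read as a change in fluorescence polarization.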
% is set by controls: 0 for no effect and ±100 for the full control effect; potency is the fitted concentration of half-maximal effect.

Structure (SMILES)	Potency	max response, negative = inhibition
Cc1ccc(S(=O)(=O)/C=C/C#N)cc1	active: 5.62 µM and active: 3.16 µM and active: 11.2 µM	
COc1ccc(C(=S)N2CCOCC2)cc1OC(=O)c1ccc([N+](=O)[O-])cc1	inconclusive: 70.8 µM [inhibitor, partial curve]	
O=S(=O)(NCCNS(=O)(=O)c1cccs1)c1cccs1		inactive: 12.4%
O=C(O)c1ccc(NC2=C(N3CCOCC3)C(=O)c3ccccc3C2=O)cc1	inconclusive: 89.1 µM [inhibitor, partial curve]	
Fc1ccc(/C=N/n2cnn(Cc3ccccc3Cl)c2=S)cc1	inconclusive: 56.2 µM [inhibitor, partial curve, poor fit]	
CCC(C(=O)Nc1ccc(C(=O)OC)cc1)n1nc(-c2ccc(C)c(C)c2)ccc1=O (stereo not drawn)		inactive: 10.7%
COc1cc(/C=C2\C(=N)N3N=C(S(C)(=O)=O)SC3=NC2=O)ccc1OC(=O)c1ccco1	active: 79.4 µM	
CC(C)(O)C#Cc1ccc(CN2CCN(C3CCCC3)C(CCO)C2)cc1 (stereo not drawn)	inconclusive: 79.4 µM [inhibitor, partial curve, poor fit]	
O=C(CSc1ccccc1Cl)c1ccco1	inconclusive: 79.4 µM [inhibitor, single point]	
COc1ccc(F)cc1S(=O)(=O)n1nnc2ccccc21	inconclusive: 100 µM [inhibitor, single point]	
CCOc1ccc(CNC(=O)Cn2ccc3cc(S(=O)(=O)N4CCCCC4)ccc32)cc1		inactive: 3.09%
Cc1ccc(C(=O)C=Cc2cccc(C)c2)cc1	inconclusive: 14.1 µM [inhibitor, full curve, poor fit]	
O=C(Nc1ccc2nc3n(c(=O)c2c1)CCCCC3)c1c(F)ccc([N+](=O)[O-])c1F	inconclusive: 20 µM [inhibitor, full curve]	
COCCOC(=O)/C(=C\c1cc(C(C)(C)C)c(O)c(C(C)(C)C)c1)C(C)=O	active: 35.5 µM	
COc1ccc(S(=O)(=O)Nc2ccc(O)c3ccccc23)cc1	inconclusive: 79.4 µM [inhibitor, single point]	
Cc1ccc(OCCOC(=O)CN2C(=O)NC3(CCCC3)C2=O)cc1	inconclusive: 79.4 µM [inhibitor, single point]	
O=C(NCC(c1cccnc1)N1CCc2ccccc21)c1ccc(F)cc1 (stereo not drawn)		inactive: 11.2%
CN(Cc1ccco1)c1cc(-c2ccoc2)ncn1	active: 28.2 µM	
CN(C)C(CNC(=O)/C=C/c1cccc(Cl)c1)c1ccccc1 (stereo not drawn)	inconclusive: 89.1 µM [inhibitor, single point]	
CC(C(=O)C12CC3CC(CC(C3)C1)C2)N1CCOCC1 (stereo not drawn)	inconclusive: 89.1 µM [inhibitor, single point]	
COc1cc(C(C)C)c2c(c1)S(=O)(=O)N(COc1cc(=O)n3cccc(OCCN4CCCCC4)c3n1)C2=O	inconclusive: 44.7 µM [inhibitor, partial curve]	
CC(C)CNc1nc(N)c([N+](=O)[O-])c(N2CCCCCC2)n1		inactive: 0%
O=C(Cn1cnc2onc(-c3ccc(Cl)cc3)c2c1=O)Nc1ccc(F)cc1		inactive: 13.4%

Structure (SMILES)	Potency	max response, negative = inhibition
COc1ccc(O)c(C(=O)c2cnn(-c3ccccn3)c2)c1		inactive: -7.37%
Cc1noc(NS(=O)(=O)c2ccc(N/C=C\C(=O)c3ccccc3)cc2)c1C		inactive: 2.27%
CC(C)CC1(C(=O)NCCc2c[nH]c3ccccc23)C=CCN1C(=O)c1ccccc1 (stereo not drawn)	inconclusive: 44.7 µM [inhibitor, partial curve, poor fit]	
CCOC(=O)c1ccc(N2C(=O)c3n[nH]c(-c4ccco4)c3C2c2cccc(O)c2)cc1 (stereo not drawn)		inactive: -13.7%
Cc1ccc(CNc2oc(C)nc2C#N)cc1		inactive: -4.85%
CCCn1c2ccc(F)cc2c2nnc(SCCN(CC)CC)nc21	inconclusive: 70.8 µM [inhibitor, partial curve]	
Cc1ccc(-n2c(N)c(-c3nc4ccccc4n3C)sc2=S)cc1	inconclusive: 31.6 µM [inhibitor, partial curve, poor fit]	
CCCOc1ccc(CSc2ncn[nH]2)cc1	inconclusive: 3.98 µM [inhibitor, partial curve, poor fit]	
Cc1noc(C)c1-c1cc(NCc2cccs2)ncn1	inconclusive: 50.1 µM [inhibitor, partial curve]	
O=C(Cc1ccsc1)Nc1ccccc1F	inconclusive: 10 µM [inhibitor, full curve, poor fit]	
Cc1ccccc1NC(=S)C1=C(O)c2sccc2N(C)S1(=O)=O	inconclusive: 50.1 µM [inhibitor, partial curve, poor fit]	
Cc1ccsc1C(=O)Nc1ccccc1N1CCOCC1	inconclusive: 17.8 µM [inhibitor, single point]	
O=C(NC1CCCC1)C(c1ccc(F)cc1)N(C(=O)c1csnn1)C1CC1 (stereo not drawn)		inactive: -7.31%
CCSc1nc2cc(S(=O)(=O)N3CCOCC3)ccc2o1	active: 25.1 µM	
COc1ccc(C2=NN(CC(=O)NCc3ccco3)C(=O)CC2)cc1	inconclusive: 89.1 µM [inhibitor, single point]	
COc1ccc(C2NC(=O)C(C#N)=C(S)N2c2ccccc2)cc1OC (stereo not drawn)	active: 44.7 µM	
COc1cc(OC)cc(C(=O)O/N=C(\N)c2ccccn2)c1		inactive: -16.1%
CC1(C)Cc2c(C#N)c(N)sc(=S)c2CS1	inconclusive: 56.2 µM [inhibitor, partial curve, poor fit]	
CC[C@@H]1Cc2cc(O)ccc2C2=C1c1ccc(O)cc1C[C@H]2CC	inconclusive: 31.6 µM [inhibitor, partial curve, poor fit]	
O=C(C[n+]1cc(Br)cc2ccccc21)c1ccc(Cl)cc1	inconclusive: 89.1 µM [inhibitor, single point]	
COCCN(CC1CCCN(C2Cc3ccccc3C2)C1)C(=O)CCC(C)=O (stereo not drawn)	inconclusive: 100 µM [inhibitor, single point]	
CC(C)(C)C(=O)NCC12C=CC(O1)C1C(=O)N(c3ccccc3)C(=O)C12 (stereo not drawn)	inconclusive: 25.1 µM [inhibitor, full curve]	
CC(C)c1nnc(SCC(=O)N2CCc3ccccc32)n1N	active: 79.4 µM	

Individual results from the results shown:
CC(C)c1nnc(SCC(=O)N2CCc3ccccc32)n1N – Potency: active: 79.4 µM
O=C(NC1CCCC1)C(c1ccc(F)cc1)N(C(=O)c1csnn1)C1CC1 (stereo not drawn) – max response, negative = inhibition: inactive: -7.31%

More entries:

Structure (SMILES)	Potency	max response, negative = inhibition
Cc1ccc(S(=O)(=O)Oc2ccc(/C=C3\C(=N)N4N=C(S(C)(=O)=O)SC4=NC3=O)cc2)cc1	active: 50.1 µM	
COC(=O)C(=Cc1ccccc1[N+](=O)[O-])C(=O)OC	inconclusive: 56.2 µM [inhibitor, partial curve, poor fit]	
Cn1cc(Br)c(C(=O)N/N=C/c2cc3c(cc2Cl)OCO3)n1	inconclusive: 89.1 µM [inhibitor, single point]	
CC1(C)CC(NC(=O)c2ccccc2NS(=O)(=O)c2ccc(Br)cc2)CC(C)(C)N1		inactive: -1.3%
NC1=NN(c2ccccc2)C(=O)C1	inconclusive: 12.6 µM [inhibitor, partial curve]	
CCOC(=O)c1c(N/N=C/c2cccnc2)n[nH]c1C		inactive: -26.4%
Cc1[nH][nH]c(=O)c1C(c1ccc(-c2cccc(Cl)c2)o1)c1c(C)[nH][nH]c1=O	inconclusive: 56.2 µM [inhibitor, partial curve, poor fit]	
CC(C)Cc1ccc([C@@H](C)C(=O)NS(C)(=O)=O)cc1	inconclusive: 100 µM [inhibitor, single point]	
CCc1ccc(C(=O)NNc2ccccc2F)cc1	inconclusive: 70.8 µM [inhibitor, single point]	
CC(=O)Nc1ccc(-c2csc(N/N=C(/C)c3ccccc3)n2)cc1	inconclusive: 28.2 µM [inhibitor, single point]	
COc1ccc(C(=O)C2CCCN(C(=O)c3ccc4cc[nH]c4c3)C2)c(C)c1 (stereo not drawn)	inconclusive: 100 µM [inhibitor, partial curve, poor fit]	
Cc1nn(C)cc1C(=O)Nc1ccc2c(c1)OCCO2		inactive: -6.86%
CCOC(=O)c1cccc(NC(=O)COc2ccc([N+](=O)[O-])cc2)c1		inactive: 6.53%
C=CCc1ccc(OCC(O)CN2CCN(Cc3ccc(Cl)cc3)CC2)c(OC)c1 (stereo not drawn)		inactive: -14.3%
CN=C(c1ccco1)n1c(=S)nc(-c2ccco2)n(C)c1=S	inconclusive: 56.2 µM [inhibitor, partial curve, poor fit]	
O=C(Sc1n[nH]c(=O)[nH]c1=O)c1ccccc1	inconclusive: 28.2 µM [inhibitor, partial curve, poor fit]	
CCCNC(=O)CN1CCN(c2ccc(NC(=O)c3ccc(OC)cc3)cc2C(=O)O)CC1		inactive: 7.16%
Cc1ccccc1C(=O)N1CCC(C(=O)Nc2ccc(F)cc2F)CC1	inconclusive: 10 µM [inhibitor, partial curve, poor fit]	
O=C(CCc1nnc(CCCCc2ccccc2)o1)NCCN1CCOC1=O		inactive: 2.66%
CC(CC(=O)Nc1nnc(C(C)(C)C)s1)c1ccccc1 (stereo not drawn)	inconclusive: 63.1 µM [inhibitor, partial curve, poor fit]	
O=C(OCn1ncc(Cl)c(Cl)c1=O)c1cccc(C(F)(F)F)c1	inconclusive: 25.1 µM [inhibitor, full curve, poor fit]	
O=C(COC(=O)c1ccc(F)c([N+](=O)[O-])c1)NC(=O)NCc1ccccc1	inconclusive: 79.4 µM [inhibitor, single point]	

Rewritten with each value named: entries from further up.
Cc1ccc(-n2c(N)c(-c3nc4ccccc4n3C)sc2=S)cc1
  Potency: inconclusive: 31.6 µM [inhibitor, partial curve, poor fit]
O=C(CCc1nnc(CCCCc2ccccc2)o1)NCCN1CCOC1=O
  max response, negative = inhibition: inactive: 2.66%
